This is an account of results in the supplement of paper PMC12873370.

Values joined by “and” are separate entries in the source; they are usually repeats but may differ in a detail not shown here. Equal entries are not always repeated. Some of the results follow. Most values come without repeats; read them as rough.

Common to all, as to assay: cell viability relative to untreated (fraction); higher = less growth inhibition
Settings in all cases: 5 µM; 3 days

Assay [1] relates to MEPP (mouse ovarian epithelium Trp53/Pten KO).
In assay [2] the test system is PREPP (mouse prostate epithelium Trp53/Pten KO).
The test system of assay [3] is MEPP (mouse ovarian epithelium Trp53/Pten KO). This is another data set of the same source.
Assay [4] has as its system PREPP (mouse prostate epithelium Trp53/Pten KO). The source holds these as a separate data set.

Regarding `CCCC(=O)[O-].[Na+]`, the cell viability in assay [1] was 1.03; in assay [2], 0.844; in assay [3], 1.05; in assay [4], 1.02.

Consider `O=c1ccc2ccccc2o1`, for which the cell viability in assay [1] was 0.872; in assay [2], 0.794; in assay [3] it was 1.17; in assay [4] it was 1.04.

Consider `C=C1C(=O)O[C@H]2[C@H]1CC/C(C)=C/CC[C@@]1(C)O[C@@H]21`, for which the cell viability in assay [1] is 1.33; in assay [2], 0.839; in assay [3] it was 1.72; in assay [4], 0.93.

On to `N#CC[C@H](C1CCCC1)n1cc(-c2ncnc3[nH]ccc23)cn1`, for which the cell viability in assay [1] is 1.16 and 1.03; in assay [2], 0.901 and 0.829; in assay [3] it was 1.11; in assay [4] it was 0.822.

As to `CC(C)c1cccc(=O)c(O)c1`, the cell viability was found to be 0.734 in assay [1], 0.59 in assay [2], 0.812 in assay [3] and 0.611 in assay [4].

On to `COc1cc(/C=C/C(=O)CC(=O)/C=C/c2ccc(O)c(OC)c2)ccc1O`, for which the cell viability is 0.909 in assay [1]; 0.762 in assay [2]; 0.837 and 1.13 in assay [3]; 1.37 and 0.868 in assay [4].

Regarding `CCCCCCCCCCCCC/C=C/[C@@H](O)[C@@H](N)CO`, the cell viability came to 1.08 in assay [1], 1.09 in assay [2], 0.856 in assay [3] and 0.959 in assay [4].

Turning to `NC(=O)c1ccccc1`, the cell viability was 1.08 in assay [1], 1 in assay [2], 0.8 in assay [3] and 1.08 in assay [4].

On to `O=C(O)/C=C/c1ccccc1`, for which the cell viability in assay [1] was 1.16; in assay [2] it was 1.08; in assay [3] it was 0.982 and 0.978; in assay [4], 1.24 and 0.899.

In turn, `C[C@@H]1O[C@@H](OC[C@H]2O[C@@H](Oc3c(-c4ccc(O)c(O)c4)oc4cc(O)cc(O)c4c3=O)[C@H](O)[C@@H](O)[C@@H]2O)[C@H](O)[C@H](O)[C@H]1O` gave a cell viability in assay [3] of 0.834.

Take `COc1cccc2c1C(=O)c1c(O)c3c(c(O)c1C2=O)C[C@@](O)(C(=O)CO)C[C@@H]3O[C@H]1C[C@H](N)[C@H](O[C@@H]2CCCCO2)[C@H](C)O1`: the cell viability was determined as 0.294 in assay [1], 0.392 in assay [2], 0.499 in assay [3] and 0.867 in assay [4].

In the case of `CCCCC[C@H](O)CC(=O)CCc1ccc(O)c(OC)c1`, the cell viability in assay [1] was 0.891; in assay [2] it was 0.88; in assay [3] it was 1.3; in assay [4], 0.897.

For `NC(=O)c1cccc2[nH]c(-c3ccc(C4CCCN4)cc3F)nc12` (stereo unspecified), the cell viability in assay [1] was 0.802; in assay [2], 0.801.

`NC(=O)c1cccnc1`: the cell viability in assay [1] was 0.875; in assay [2] it was 0.888; in assay [3], 1.01; in assay [4], 1.01.

With `Oc1ccc(/C=C/c2cc(O)cc(O)c2)cc1`, the cell viability worked out at 0.812 in assay [1], 0.852 in assay [2], 1.11 in assay [3] and 0.909 in assay [4].

As to `COc1cccc2c1C(=O)c1c(O)c3c(c(O)c1C2=O)CC(O)(C(=O)CO)CC3OC1CC(N)C(O)C(C)O1` (stereo unspecified), the cell viability in assay [1] came to 0.313; in assay [2], 0.314; in assay [3], 0.851; in assay [4], 0.672.

As for `COc1cc2ccc(=O)oc2cc1O`, the cell viability in assay [3] amounted to 1.19; in assay [4], 0.812.

Consider `CC1(C)C=Cc2c(ccc3c2OC[C@@H](c2ccc(O)cc2O)C3)O1`, for which the cell viability in assay [3] was determined as 1.07; in assay [4] it was 1.13.

For the compound `C[C@@H]1O[C@@H](O[C@H]2[C@H](O[C@H]3[C@H](O[C@H]4CC[C@]5(C)[C@H]6CC=C7[C@@H]8CC(C)(C)CC[C@]8(C(=O)O)CC[C@@]7(C)[C@]6(C)CC[C@H]5C4(C)C)OC[C@H](O)[C@@H]3O)O[C@H](CO)[C@@H](O)[C@@H]2O)[C@H](O)[C@H](O)[C@H]1O`, the cell viability worked out at 0.129 in assay [1], 0.243 in assay [2], 0.334 in assay [3] and 0.263 in assay [4].

For the compound `NC(=O)c1ncn([C@@H]2O[C@H](CO)[C@@H](O)[C@H]2O)c1O`, the cell viability in assay [1] is 1.08; in assay [2], 0.96; in assay [3], 1.3; in assay [4] it was 0.944.

`O=C(O[C@@H]1Cc2c(O)cc(O)cc2O[C@@H]1c1cc(O)c(O)c(O)c1)c1cc(O)c(O)c(O)c1`: the cell viability in assay [1] was 0.941; in assay [2], 0.854; in assay [3], 1.36; in assay [4] it was 0.918.

As for `CCOC(=O)NCCCC(=O)NCCc1ccccc1`, the cell viability was found to be 1.01 in assay [1], 0.854 in assay [2], 0.847 in assay [3] and 1.03 in assay [4].

Regarding `C[C@@H]1CC[C@@]2(OC1)O[C@H]1C[C@H]3[C@@H]4CC=C5C[C@@H](O)CC[C@]5(C)[C@H]4CC[C@]3(C)[C@H]1[C@@H]2C`, the cell viability in assay [1] was found to be 1.08; in assay [2], 0.989; in assay [3] it was 0.964; in assay [4] it was 1.04.

Regarding `CC(C=CC(=O)NO)=CC(C)C(=O)c1ccc(N(C)C)cc1` (stereo unspecified), the cell viability in assay [1] worked out at 0.452; in assay [2], 0.736; in assay [3], 0.665; in assay [4] it was 0.507.

As for `Nc1ccn([C@@H]2O[C@H](CO)[C@@H](O)[C@@H]2O)c(=O)n1`, the cell viability is 0.532 in assay [1], 0.669 in assay [2], 0.871 in assay [3] and 0.792 in assay [4].

Consider `O=c1c(O)c(-c2ccc(O)c(O)c2)oc2cc(O)ccc12`, for which the cell viability in assay [1] was found to be 0.966; in assay [2] it was 0.925; in assay [3] it was 0.799; in assay [4], 1.1.

Regarding `N[C@@H](Cc1cc(I)c(Oc2ccc(O)c(I)c2)c(I)c1)C(=O)O`, the cell viability in assay [3] worked out at 0.86; in assay [4] it was 0.974.

For `CO[C@@]12[C@H](COC(N)=O)C3=C(C(=O)C(C)=C(N)C3=O)N1C[C@@H]1N[C@@H]12`, the cell viability in assay [1] turned out to be 0.589; in assay [2], 0.599; in assay [3] it was 0.964; in assay [4], 0.536.

For the compound `C=C1C[C@@]2(O)O[C@@]3(C[C@H]2C(C)C)[C@@H](C)CC[C@@H]13`, the cell viability came out at 1.1 in assay [1], 1.07 in assay [2], 0.844 in assay [3] and 0.874 in assay [4].

As to `NC(=O)c1ncn([C@@H]2O[C@H](CO)[C@@H](O)[C@H]2O)c1N`, the cell viability in assay [1] was found to be 0.905; in assay [2], 1.05; in assay [3], 0.941; in assay [4], 0.884.

`C=CCNC1=C2C[C@@H](C)C[C@H](OC)[C@H](O)[C@@H](C)/C=C(\C)[C@H](OC(N)=O)[C@@H](OC)/C=C\C=C(/C)C(=O)NC(=CC1=O)C2=O`: the cell viability turned out to be 0.945 in assay [3] and 0.444 in assay [4].
